Laboratory results published in US8962845B2, “Pyrazole compounds” (National Health Research Institutes, priority 2011, dated 2015).
Some results were stated once for a whole list of compounds, not compound by compound.

The chains behind the UniProt entries cited, without tags or fusion partners.
UniProt P21554, whole entry: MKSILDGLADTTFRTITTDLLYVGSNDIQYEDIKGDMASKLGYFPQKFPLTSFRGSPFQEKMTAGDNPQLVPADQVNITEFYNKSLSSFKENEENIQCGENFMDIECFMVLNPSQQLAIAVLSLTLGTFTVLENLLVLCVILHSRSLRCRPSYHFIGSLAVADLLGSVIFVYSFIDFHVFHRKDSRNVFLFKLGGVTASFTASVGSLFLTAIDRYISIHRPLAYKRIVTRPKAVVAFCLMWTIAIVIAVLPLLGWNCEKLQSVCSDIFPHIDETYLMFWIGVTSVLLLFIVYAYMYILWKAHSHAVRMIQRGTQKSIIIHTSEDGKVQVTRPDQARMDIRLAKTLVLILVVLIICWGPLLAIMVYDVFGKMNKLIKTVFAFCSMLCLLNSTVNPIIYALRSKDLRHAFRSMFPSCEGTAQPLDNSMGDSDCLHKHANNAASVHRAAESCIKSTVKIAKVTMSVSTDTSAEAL

The molecules below were run against T1, Human CB1 receptor (Homo sapiens, UniProt P21554) (assay: DELFIA GTP-binding assay). Conditions: 20 nM CP55,940; HEK293 membranes; units given in the value.
T1 construct: expressed in transfected cells
Assay type: biochemical

Row | Structure (SMILES) | EC50 for inhibiting Eu-GTP binding (CP55,940-stimulated CB1 receptor activation)
1 | CC(C)NS(=O)(=O)NCc1c(C(=O)NN2CCCCC2)nn(-c2ccc(Cl)cc2Cl)c1-c1ccc(C#Cc2ccc(C(F)(F)F)cc2)s1 [Compound 29, 1-(2,4-Dichlorophenyl)-4-((N-isopropylsulfamoylamino)methyl)-N-(piperidin-1-yl)-5-(5-((4-(trifluoromethyl)phenyl)ethynyl)thiophen-2-yl)-1H-pyrazole-3-carboxamide] | 0.001 µM and 10 µM
2 | CCCC#Cc1ccc(-c2c(CNC(=O)CC)c(C(=O)NN3CCCCC3)nn2-c2ccc(Cl)cc2Cl)s1 [Compound 71, 1-(2,4-Dichlorophenyl)-5-(5-(pent-1-ynyl)thiophen-2-yl)-N-(piperidin-1-yl)-4-(propionamidomethyl)-1H-pyrazole-3-carboxamide] | 0.001 µM and 10 µM
3 | O=C(NN1CCCCC1)c1nn(-c2ccc(Cl)cc2Cl)c(-c2ccc(C(F)(F)F)cc2)c1CNS(=O)(=O)N1CCOCC1 [Compound 136, 1-(2,4-Dichlorophenyl)-4-((morpholine-4-sulfonamido)methyl)-N-(piperidin-1-yl)-5-(4-(trifluoromethyl)phenyl)-1H-pyrazole-3-carboxamide] | 0.001 µM and 10 µM
4 | CCNC(=O)NCc1c(C(=O)NN2CCCCC2)nn(-c2ccc(Cl)cc2Cl)c1-c1ccc(C#Cc2ccc(C(F)(F)F)cc2)s1 [Compound 19, 1-(2,4-Dichlorophenyl)-4-((3-ethylureido)methyl)-N-(piperidin-1-yl)-5-(5-((4-(trifluoromethyl)phenyl)ethynyl)thiophen-2-yl)-1H-pyrazole-3-carboxamide] | 0.001 µM and 10 µM
5 | CC(=O)NCc1c(C(=O)NN2CCCCC2)nn(-c2ccc(Cl)cc2Cl)c1-c1ccc(C#Cc2ccc(C(F)(F)F)cc2)s1 [Compound 16, 4-(Acetamidomethyl)-1-(2,4-dichlorophenyl)-N-(piperidin-1-yl)-5-(5-((4-(trifluoromethyl)phenyl)ethynyl)thiophen-2-yl)-1H-pyrazole-3-carboxamide] | 0.001 µM and 10 µM
6 | N#CCc1c(C(=O)NN2CCCCC2)nn(-c2ccc(Cl)cc2Cl)c1-c1ccc(C#Cc2ccc(C(F)(F)F)cc2)s1 [Compound 113, 4-(Cyanomethyl)-1-(2,4-dichlorophenyl)-N-(piperidin-1-yl)-5-(5-((4-(trifluoromethyl)phenyl)ethynyl)thiophen-2-yl)-1H-pyrazole-3-carboxamide] | 0.001 µM and 10 µM
7 | O=C(NN1CCCCC1)c1nn(-c2ccc(Cl)cc2Cl)c(-c2ccc(C#Cc3ccc(C(F)(F)F)cc3)s2)c1CNS(=O)(=O)C1CCCC1 [Compound 31, 4-(Cyclopentanesulfonamidomethyl)-1-(2,4-dichlorophenyl)-N-(piperidin-1-yl)-5-(5-((4-(trifluoromethyl)phenyl)ethynyl)thiophen-2-yl)-1H-pyrazole-3-carboxamide] | 0.001 µM and 10 µM
8 | N/C(=C\[N+](=O)[O-])NCc1c(C(=O)NN2CCCCC2)nn(-c2ccc(Cl)cc2Cl)c1-c1ccc(C#Cc2ccc(C(F)(F)F)cc2)s1 [Compound 12, (E)-4-((1-Amino-2-nitrovinylamino)methyl)-1-(2,4-dichlorophenyl)-N-(piperidin-1-yl)-5-(5-((4-(trifluoromethyl)phenyl)ethynyl)thiophen-2-yl)-1H-pyrazole-3-carboxamide] | 0.001 µM and 10 µM
9 | CNC(=N)NCc1c(C(=O)NN2CCCCC2)nn(-c2ccc(Cl)cc2Cl)c1-c1ccc(C#Cc2ccc(C(F)(F)F)cc2)s1 [Compound 15, 1-(2,4-Dichlorophenyl)-4-((3-methylguanidino)methyl)-N-(piperidin-1-yl)-5-(5-((4-(trifluoromethyl)phenyl)ethynyl)thiophen-2-yl)-1H-pyrazole-3-carboxamide] | 0.001 µM and 10 µM
10 | O=C(NN1CCCCC1)c1nn(-c2ccc(Cl)cc2Cl)c(-c2ccc(C#CC3CCCC3)s2)c1CNS(=O)(=O)N1CCS(=O)(=O)CC1 [Compound 77, 5-[5-(Cyclopentylethynyl)thiophen-2-yl]-1-(2,4-dichlorophenyl)-4-({[(1,1-dioxidothiomorpholin-4-yl)sulfonyl]amino}methyl)-N-(piperidin-1-yl)-1H-pyrazole-3-carboxamide] | 0.001 µM and 10 µM
11 | COC(=O)NCc1c(C(=O)NN2CCCCC2)nn(-c2ccc(Cl)cc2Cl)c1-c1ccc(C#CC2CCCC2)s1 [Compound 81, Methyl(5-(5-(cyclopentylethynyl)thiophen-2-yl)-1-(2,4-dichlorophenyl)-3-(piperidin-1-ylcarbamoyl)-1H-pyrazol-4-yl)methylcarbamate] | 0.001 µM and 10 µM
12 | CCCC#Cc1ccc(-c2c(CNS(=O)(=O)c3cnc[nH]3)c(C(=O)NN3CCCCC3)nn2-c2ccc(Cl)cc2Cl)s1 [Compound 67, 4-((1H-Imidazole-5-sulfonamido)methyl)-1-(2,4-dichlorophenyl)-5-(5-(pent-1-ynyl)thiophen-2-yl)-N-(piperidin-1-yl)-1H-pyrazole-3-carboxamide] | 0.001 µM and 10 µM
13 | O=C(NN1CCCCC1)c1nn(-c2ccc(Cl)cc2Cl)c(-c2ccc(C#Cc3ccc(Cl)cc3)s2)c1CNS(=O)(=O)N1CCCC1 [Compound 54, 5-(5-((4-Chlorophenyl)ethynyl)thiophen-2-yl)-1-(2,4-dichlorophenyl)-N-(piperidin-1-yl)-4-((pyrrolidine-1-sulfonamido)methyl)-1H-pyrazole-3-carboxamide] | 0.001 µM and 10 µM
14 | O=C(NN1CCCCC1)c1nn(-c2ccc(Cl)cc2Cl)c(-c2ccc(C#Cc3ccc(Cl)cc3)s2)c1CNS(=O)(=O)c1cnc[nH]1 [Compound 53, 4-((1H-Imidazole-5-sulfonamido)methyl)-5-(5-((4-chlorophenyl)ethynyl)thiophen-2-yl)-1-(2,4-dichlorophenyl)-N-(piperidin-1-yl)-1H-pyrazole-3-carboxamide] | 0.001 µM and 10 µM
15 | O=C(NN1CCCCC1)c1nn(-c2ccc(Cl)cc2Cl)c(-c2ccc(C#Cc3ccc(C(F)(F)F)cc3)s2)c1CNS(=O)(=O)N1CC[C@@H](F)C1 [Compound 149, 1-(2,4-dichlorophenyl)-4-(((R)-3-fluoropyrrolidine-1-sulfonamido)methyl)-N-(piperidin-1-yl)-5-(5-((4-(trifluoromethyl)phenyl)ethynyl)thiophen-2-yl)-1H-pyrazole-3-carboxamide] | 0.001 µM and 10 µM
16 | CC1CN(S(=O)(=O)NCc2c(C(=O)NN3CCCCC3)nn(-c3ccc(Cl)cc3Cl)c2-c2ccc(Cl)cc2)CC(C)O1 (centres unmarked) [Compound 132, 5-(4-Chlorophenyl)-1-(2,4-dichlorophenyl)-4-((2,6-dimethylmorpholine-4-sulfonamido)methyl)-N-(piperidin-1-yl)-1H-pyrazole-3-carboxamide] | 0.001 µM and 10 µM
17 | CC1(NCc2c(C(=O)NN3CCCCC3)nn(-c3ccc(Cl)cc3Cl)c2-c2ccc(C#Cc3ccc(C(F)(F)F)cc3)s2)COC1 [Compound 94, 1-(2,4-Dichlorophenyl)-4-((3-methyloxetan-3-ylamino)methyl)-N-(piperidin-1-yl)-5-(5-((4-(trifluoromethyl)phenyl)ethynyl)thiophen-2-yl)-1H-pyrazole-3-carboxamide] | 0.001 µM and 10 µM
18 | O=C(NN1CCCCC1)c1nn(-c2ccc(Cl)cc2Cl)c(-c2ccc(C(F)(F)F)cc2)c1CNS(=O)(=O)N1CCCC1 [Compound 134, 1-(2,4-Dichlorophenyl)-N-(piperidin-1-yl)-4-((pyrrolidine-1-sulfonamido)methyl)-5-(4-(trifluoromethyl)phenyl)-1H-pyrazole-3-carboxamide] | 0.001 µM and 10 µM
19 | O=C(NN1CCCCC1)c1nn(-c2ccc(Cl)cc2Cl)c(-c2ccc(C#Cc3ccc(C(F)(F)F)cc3)s2)c1CN1CC(F)C1 [Compound 92, 1-(2,4-Dichlorophenyl)-4-((3-fluoroazetidin-1-yl)methyl)-N-(piperidin-1-yl)-5-(5-((4-(trifluoromethyl)phenyl)ethynyl)thiophen-2-yl)-1H-pyrazole-3-carboxamide] | 0.001 µM and 10 µM
20 | CCC(=O)NCc1c(C(=O)NN2CCCCC2)nn(-c2ccc(Cl)cc2Cl)c1-c1ccc(C#CC2CCCC2)s1 [Compound 83, 5-(5-(Cyclopentylethynyl)thiophen-2-yl)-1-(2,4-dichlorophenyl)-N-(piperidin-1-yl)-4-(propionamidomethyl)-1H-pyrazole-3-carboxamide] | 0.001 µM and 10 µM
21 | O=C(NN1CCCCC1)c1nn(-c2ccc(Cl)cc2Cl)c(-c2ccc(C#Cc3ccc(C(F)(F)F)cc3)s2)c1CNS(=O)(=O)N1CCC(O)C1 (centres unmarked) [Compound 143, 1-(2,4-dichlorophenyl)-4-((3-hydroxypyrrolidine-1-sulfonamido)methyl)-N-(piperidin-1-yl)-5-(5-((4-(trifluoromethyl)phenyl)ethynyl)thiophen-2-yl)-1H-pyrazole-3-carboxamide] | 0.001 µM and 10 µM
22 | O=C(NN1CCCCC1)c1nn(-c2ccc(Cl)cc2Cl)c(-c2ccc(C#Cc3ccc(Cl)cc3)s2)c1CNS(=O)(=O)N1CCC1 [Compound 60, 4-((Azetidine-1-sulfonamido)methyl)-5-(5-((4-chlorophenyl)ethynyl)thiophen-2-yl)-1-(2,4-dichlorophenyl)-N-(piperidin-1-yl)-1H-pyrazole-3-carboxamide] | 0.001 µM and 10 µM
23 | O=C(NN1CCCCC1)c1nn(-c2ccc(Cl)cc2Cl)c(-c2ccc(C#CC3CCCC3)s2)c1CNS(=O)(=O)c1cnc[nH]1 [Compound 79, 4-((1H-Imidazole-5-sulfonamido)methyl)-5-(5-(cyclopentylethynyl)thiophen-2-yl)-1-(2,4-dichlorophenyl)-N-(piperidin-1-yl)-1H-pyrazole-3-carboxamide] | 0.001 µM and 10 µM
